## Primary screen of a compound library

Chains of the proteins cited; added tags and fusions are not shown. Residues count along the entry.
UniProt A4I591, 1-473: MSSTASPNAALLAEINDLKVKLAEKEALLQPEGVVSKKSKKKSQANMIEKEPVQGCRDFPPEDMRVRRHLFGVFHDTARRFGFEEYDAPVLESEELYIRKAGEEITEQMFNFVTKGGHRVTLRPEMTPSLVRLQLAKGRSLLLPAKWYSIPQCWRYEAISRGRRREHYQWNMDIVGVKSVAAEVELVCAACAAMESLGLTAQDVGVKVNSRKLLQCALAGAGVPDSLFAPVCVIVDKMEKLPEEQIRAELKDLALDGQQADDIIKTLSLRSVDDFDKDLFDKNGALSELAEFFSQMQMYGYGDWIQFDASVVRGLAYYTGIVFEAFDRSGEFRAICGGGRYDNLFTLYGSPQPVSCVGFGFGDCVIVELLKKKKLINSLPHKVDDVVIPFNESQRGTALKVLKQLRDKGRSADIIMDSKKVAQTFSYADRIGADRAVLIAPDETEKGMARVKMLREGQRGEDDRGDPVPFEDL

From ChEMBL document CHEMBL3988442, “University of Dundee, Small-Polar-MMV Screening Library” (2021).

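Histidine-tRNA ligase, Leishmania infantum (UniProt A4I591). Enzyme assay of histidyl-tRNA synthetase; the read-out is not stated. Tested at 30 µM. Direction is inferred from retests: higher values go with stronger inhibition. The assay is labelled LdHisRS but filed under L. infantum. About 69,000 compounds were tested under these conditions; 0.6% (about 410) showed 50% or more at least once.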

Results are given as percent effect.
The controls that fix the scale are not given in the record; negative values are as filed.
The compounds are a random part of those screened.

- CC(C)c1nnc2n1CCN(C(=O)CN1Cc3ccccc3C1=O)C2 : 2.4%
- O=C1CCC(=O)N1c1nn(Cc2ccc(F)cc2)cc1Cl : 0%
- CN(C)CC1(O)CCN(Cc2cnc3c(-c4ccccc4)cnn3c2)C1 (stereo not given) : 10.53%
- O=C(CCN1CCCCCC1c1ccco1)N1CCOCC1 (stereo not given) : 3.448%
- CC[C@@H]1N(C)CCC[C@]12CCC(=O)N2Cc1ccncc1 : 15.38%
- CN1CCOC(C)(C(=O)N2CCSCC2)C1 (stereo not given) : 6.207%
- CCOCc1cccc(NCc2c[nH]nc2-c2cccnc2)c1 : 14.29%
- COc1cccc(OCCN2CC[C@@](O)(C3CCOCC3)[C@H](C)C2)c1 : 11.7%
- CC(C)n1cc(S(=O)(=O)N2CCCCCC2)cn1 : 13.79%
- Cc1noc(C(C)C)c1C(=O)NCc1ccc(N(C)C)c(F)c1 : -5.217%
- CS(=O)(=O)N[C@@H]1COC[C@@H]2CN(Cc3ccco3)C[C@@H]21 : -4.167%
- CC(C)c1noc(C(C)N2CCN(Cc3ccco3)CC2)n1 (stereo not given) : 7.576%
- Cc1c(CN2CCOCC2)c(O)n(CCO)c(=O)c1C#N : 47.42%
- CCc1n[nH]c(C2CN(C(=O)c3nc(C)ncc3Cl)CCO2)n1 (stereo not given) : 3.125%
- CCCN1CCC(c2cc(CCOc3ccc(C(F)(F)F)cc3)[nH]n2)C1 (stereo not given) : 16.11%
- CCOCC(O)CN1CCN(C(=O)c2cnc3n[nH]c(C)c3c2)CC1 (stereo not given) : 19.7%
- CN(C)C(C(=O)NCC(F)(F)F)c1cccc(F)c1 (stereo not given) : 18.4%
- Cc1cc(CNC2(c3ccc(Cl)cc3)CC2)no1 : 3.125%
- CC(C)c1cnc(CN(C)C2CCN(CCS(C)(=O)=O)C2)o1 (stereo not given) : 8.85%
- O=c1[nH]c2nc(NCC3CCCO3)ncc2c(=O)n1-c1cccc(F)c1 (stereo not given) : 13.56%
- O=C(NCC1CCCCC1)N1C[C@H]2C[C@H](C(=O)N3CCOCC3)[C@@H](C1)O2 : -2%
- Cc1ccc(-c2noc(CN3CCC(c4ccn[nH]4)CC3)n2)cc1 : 12.9%
- CC(C)NC(=O)[C@@H]1C[C@H](N)CN1C(=O)c1cc2c([nH]c1=O)CCCC2 : 16.35%
- CN(C)C1CCN(C(=O)NCc2ccccc2Cn2cncn2)CC1 : 21.15%
- Cc1nc(CSc2ccc(C(F)(F)F)cn2)no1 : 11.69%
- Cn1ncc2c(=O)[nH]c(CN3CCc4ccccc4C3)nc21 : 16.36%
- CC(=O)Nc1nc(C(=O)N2CCCC2c2ccccc2C)cs1 (stereo not given) : 10.96%
- CCCc1cc(C(=O)NCCCn2nnc3ccccc32)no1 : 12.9%

Repeated from the top, 2 entries:

SMILES	Percent Effect
CC(C)c1nnc2n1CCN(C(=O)CN1Cc3ccccc3C1=O)C2	2.4
O=C1CCC(=O)N1c1nn(Cc2ccc(F)cc2)cc1Cl	0